In article PMC5431615:
Results are given in words; binding and its absence hold for the method and conditions named. For part of these data: Binding calls can cover weak binding; strength is not graded here. For part of these data: In cells and extracts the contact can be indirect.

Key:
[1] = molecular target: SH2 domain of Nck2 in the purified PDGFR biosensor; experiment: FRET or BRET; intramolecular FRET (ECFP to YPet) of the purified biosensor, both partners on one chain; emission ratio 478 nm/526 nm, excitation 430 nm, before and after 1 mM ATP and 1 ug/ml PDGF receptor (or EGFR, Src, Fyn, Yes, Abl) in 50 mM Tris-HCl, 100 mM NaCl, 10 mM MgCl2, 2 mM DTT, pH 8; binding lowers FRET; both purified
[2] = molecular target: SH2 domain of Nck2 with R45V in the purified PDGFR biosensor; experiment: as above
[3] = molecular target: SH2 domain of Nck2 in the Lyn-PDGFR biosensor; experiment: FRET or BRET; intramolecular FRET (ECFP/FRET emission ratio imaging) of Lyn- or KRas-tagged biosensor in live MEFs at 37 C, before and after PDGF stimulation; both partners on one chain
[4] = molecular target: SH2 domain of Nck2 with R45V in the Lyn-PDGFR biosensor; experiment: as above
[5] = molecular target: SH2 domain of Nck2 in the KRas-PDGFR biosensor; experiment: as above
[6] = molecular target: SH2 domain of Nck2 with R45V in the KRas-PDGFR biosensor; experiment: as above

Binder	binding [1]	binding [3]	binding [5]	also measured
DESVDYVPMLDM (phosphotyrosine at Tyr751 (by the added active PDGFR)) [PDGFR substrate peptide with phosphorylated Tyr751 in the purified PDGFR biosensor]	binds	–	–	binding [2]: no binding
DESVDYVPMLDM (phosphotyrosine at Tyr751 (by PDGFR of the cells after PDGF stimulation)) [PDGFR substrate peptide with phosphorylated Tyr751 in the Lyn-PDGFR biosensor]	–	binds	–	binding [4]: no binding
DESVDYVPMLDM (phosphotyrosine at Tyr751 (by PDGFR of the cells after PDGF stimulation)) [PDGFR substrate peptide with phosphorylated Tyr751 in the KRas-PDGFR biosensor]	–	–	binds	binding [6]: no binding
DESVDFVPMLDM [PDGFR substrate peptide with Y751F in the purified PDGFR biosensor]	no binding	–	–	–
DESVDFVPMLDM [PDGFR substrate peptide with Y751F in the Lyn-PDGFR biosensor]	–	no binding	–	–
DESVDFVPMLDM [PDGFR substrate peptide with Y751F in the KRas-PDGFR biosensor]	–	–	no binding	–
